Laboratory results: PubChem BioAssay AID1259254 (NCATS, 2017)
In all, the deposit lists about 59,000 reagents; below is an unselected part. Over the whole deposit, about 1,550 (2.6%) are marked active. 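G2 share is only a proxy for re-replication; each gene was hit by three separate siRNAs, and active genes were retested.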 Entries without a mark were called inactive. Further read-outs or replicates are left out here. Not stated in the record: the amount of reagent.

Screen: 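Gene knock-downs that lead to re-replication, shown by excess G2 DNA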 (primary screen)
Cells: human HCT116 colorectal cancer cells
Reagent: single siRNA against human genes
Time to read-out: 3 days
Detection: 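Imaged Hoechst DNA stain sorts each cell into a cycle phase by DNA amount; per plate, G2 fraction set to 0% for non-targeting and 100% for GMNN siRNA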
Direction: G2 robust z-score and G2 cells, % of GMNN control: higher = more G2 cells, more excess DNA replication
Call rule: 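Active siRNAs have a G2 robust z of 5 or more median absolute deviations over the median, which in these data means about 38% or higher of GMNN control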

Target gene | PubChem SID | G2 robust z-score | G2 cells, % of GMNN control
GP1BB | SID160723790 | -0.358 | 0.45
GP1BB | SID160723791 | 2.84 | 23
GP1BB | SID160723792 | -0.877 | -3.2
PSG4 | SID160715150 | 1.04 | 10.3
PSG4 | SID160715151 | 3.84 | 30
PSG4 | SID160733647 | -0.436 | -0.102
COL6A1 | SID160746056 | -0.625 | -1.43
COL6A1 | SID160746067 | 1.04 | 10.3
COL6A1 | SID160746078 | -0.325 | 0.679
LINC00469 | SID160732955 | 0.712 | 7.98
LINC00469 | SID160763092 | -0.74 | -2.24
LINC00469 | SID160763093 | 0.628 | 7.39
CZ1P-ASNS | SID160767972 | 1.25 | 11.8
CZ1P-ASNS | SID160767973 | -0.356 | 0.465
CZ1P-ASNS | SID160767974 | 1.09 | 10.6
ZNF429 | SID160765137 | 0.466 | 6.25
ZNF429 | SID160765138 | 0.879 | 9.15
ZNF429 | SID160765139 | 0.147 | 4
KLRC1 | SID160776308 | 0.736 | 8.15
KLRC1 | SID160776309 | -1.24 | -5.78
KLRC1 | SID160776310 | -0.785 | -2.56
BICD1 | SID160726475 | 3.24 | 25.8
BICD1 | SID160726533 | -0.842 | -2.95
BICD1 | SID160726593 | -0.241 | 1.27
CTF1 | SID160750191 | 0.469 | 6.26
CTF1 | SID160750202 | -0.00265 | 2.95
CTF1 | SID160750213 | 1.7 | 14.9
OVOL2 | SID160746848 | 0.812 | 8.68
OVOL2 | SID160746849 | -0.694 | -1.92
OVOL2 | SID160746851 | -0.166 | 1.8
ALKBH7 | SID160724611 | -0.24 | 1.28
ALKBH7 | SID160735084 | -0.79 | -2.59
ALKBH7 | SID160752001 | 0.326 | 5.26

Part of the list above, set out differently:
| Target gene | PubChem SID | G2 robust z-score | G2 cells, % of GMNN control |
| --- | --- | --- | --- |
| KLRC1 | SID160776310 | -0.785 | -2.56 |
| BICD1 | SID160726475 | 3.24 | 25.8 |
| BICD1 | SID160726533 | -0.842 | -2.95 |
| BICD1 | SID160726593 | -0.241 | 1.27 |
| CTF1 | SID160750191 | 0.469 | 6.26 |

The list goes on:
Target gene | PubChem SID | G2 robust z-score | G2 cells, % of GMNN control
ERGIC2 | SID160740509 | -0.701 | -1.97
ERGIC2 | SID160740510 | 1.46 | 13.2
ERGIC2 | SID160740511 | 0.98 | 9.87
PLP2 | SID160714491 | -0.171 | 1.76
PLP2 | SID160714492 | -0.296 | 0.882
PLP2 | SID160714494 | -0.38 | 0.297
CFAP251 | SID160732521 | 0.000241 | 2.97
CFAP251 | SID160758149 | -0.253 | 1.19
CFAP251 | SID160758150 | 2.4 | 19.9
APPBP2 | SID160728612 | -0.888 | -3.28
APPBP2 | SID160728613 | -1.48 | -7.45
APPBP2 | SID160728614 | -0.238 | 1.3
HPS6 | SID160749477 | -0.0965 | 2.29
HPS6 | SID160749478 | -0.522 | -0.708
HPS6 | SID160749479 | -0.202 | 1.54
CCDC158 | SID160764332 | 0.272 | 4.88
CCDC158 | SID160764333 | 4.39 | 33.9
CCDC158 | SID160764334 | -0.711 | -2.04
DUX4L16 | SID160726587 | 0.369 | 5.57
DUX4L16 | SID160726588 | -0.334 | 0.618
DUX4L16 | SID160771543 | 0.664 | 7.64
TTC28 | SID160736028 | 0.254 | 4.75
TTC28 | SID160736029 | -0.143 | 1.96
TTC28 | SID160736031 | -0.998 | -4.06
PPBPP1 | SID160771423 | 0.837 | 8.86
PPBPP1 | SID160771424 | -0.894 | -3.33
PPBPP1 | SID160771425 | -0.625 | -1.43
FAM66C | SID160767683 | 4.07 | 31.6
FAM66C | SID160767684 | 1.66 | 14.7
FAM66C | SID160767686 | 2.9 | 23.4
RGS6 | SID160722652 | 0.685 | 7.79
RGS6 | SID160722653 | 3.54 | 27.8
RGS6 | SID160722654 | 2 | 17.1
MPV17L | SID160732813 | 0.3 | 5.08
MPV17L | SID160762256 | -0.433 | -0.0764
MPV17L | SID160762259 | 0.781 | 8.46
PEDS1 | SID160765600 | 0.0337 | 3.2
PEDS1 | SID160765601 | 0.791 | 8.53
PEDS1 | SID160765602 | 1.05 | 10.4
SLC30A5 | SID160729959 | -0.362 | 0.421
SLC30A5 | SID160730062 | -0.55 | -0.901
SLC30A5 | SID160730167 | 0.242 | 4.67
MORN1 | SID160749750 | -1.04 | -4.33
MORN1 | SID160749752 | -0.434 | -0.0845
MORN1 | SID160749753 | -0.348 | 0.518
ASIC1 | SID160777588 | -0.578 | -1.1
ASIC1 | SID160777597 | -1.38 | -6.73
ASIC1 | SID160777607 | 0.197 | 4.35
GPR62 | SID160755628 | -1.19 | -5.38
GPR62 | SID160755629 | 0.145 | 3.99
GPR62 | SID160755630 | -0.772 | -2.47
CALM1 | SID160735841 | 1.85 | 16
CALM1 | SID160735851 | -1.19 | -5.38
CALM1 | SID160735862 | -0.334 | 0.616
